# This is one part of the list. Shown are side measurements of this screen, not its main read-out; they come without a call. The list favours compounds with an active or inconclusive main result. Potencies come from curve fits of mixed quality, noted in brackets.
# Experiment: Cell signaling CRE-BLA (Fsk stim)
# Conditions: CHO CRE-bla reporter (cAMP response element driving beta-lactamase), forskolin EC10, beta-lactamase ratio; measured here: 460 nm blue channel
# Summary of the method: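 Reporter-gene assay: CHO cells with beta-lactamase behind cAMP responsive elements, co-treated with compound and EC10 NKH 477 for 3 hours at 37 degrees Celsius. Activity came from the 460/530 nm CCF4 emission ratio.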
row,Structure (SMILES),AC50
1,Cc1c(NC(=O)C(C)OC(=O)CC2Sc3ccccc3NC2=O)c(=O)n(-c2ccccc2)n1C (centres undefined),"5.01 µM [falling, single point]"
2,CCN(CC)c1ccc(-n2cc3c(=O)n(C)c(=O)n(C)c3c2)cc1,"10 µM [rising, partial curve]"
3,O=c1c(-c2ccc(F)cc2)nc2cncnc2n1Cc1ccccc1,"25.1 µM [rising, single point]"
4,CCN(CC(=O)NCc1cccs1)c1nnnn1-c1ccccc1,"15.8 µM [falling, single point]"
5,O=C(Nc1cccc2ccccc12)OC1C=CS(=O)(=O)C1 (centres undefined),"12.6 µM [falling, partial curve]"
6,COc1ccc(S(=O)(=O)NCc2ccco2)cc1-c1nnc2c3ccccc3c(C)nn12,"1.58 µM [rising, partial curve]"
7,CCOC(=O)Nc1cc(OC)c(OC)cc1Cc1nccc2cc(OC)c(OC)cc12,"7.94 µM [rising, partial curve]"
8,CCNc1ncc2nc(-c3cn(C)c4ccccc34)c(=O)n(Cc3cccc(OC)c3)c2n1,"15.8 µM [rising, partial curve]"
9,COc1ccc(-c2nc3cnc(Nc4cccc(OC)c4)nc3n(C[C@H]3CCCO3)c2=O)cc1,"1.58 µM [rising, full curve]"
10,CCc1nnc(NC(=O)CSc2nnc(C3CCCCC3)n2-c2ccccc2)s1,"12.6 µM [rising, partial curve]"
11,Cc1c(NC(=O)c2c(F)c(F)c(F)c(F)c2F)c(=O)n(-c2ccccc2)n1C,"5.01 µM [falling, partial curve]"
12,Cc1nnc(SC(C)C(=O)Nc2ccc3c(c2)OCCO3)s1 (centres undefined),"3.16 µM [rising, single point]"
13,CNc1ccc(OC(F)F)cc1C(=O)c1ccccc1,"10 µM [rising, partial curve]"
14,Cc1cc(C(=O)CSc2nnc(-c3cccc(F)c3)n2N)c(C)n1Cc1ccc2c(c1)OCO2,"15.8 µM [falling, single point]"
15,CCCCOc1ccccc1NC(=O)Cn1c(-c2nonc2N)nc2ccccc21,"1 µM [rising, full curve, poor fit]"
16,O=C(CC1(O)C(=O)Nc2cc(Cl)cc(Cl)c21)c1ccncc1 (centres undefined),"3.98 µM [falling, partial curve]"
17,Cc1nc2ccccc2c2oc(C(=O)N3CCc4ccccc43)cc12,"0.501 µM [rising, full curve]"
18,O=C(c1cnn2c(C(F)(F)F)cc(-c3ccco3)nc12)N1CCc2ccccc2C1,"12.6 µM [rising, partial curve]"
19,CCn1c(SCC(=O)N2CCCC2)nc2c(c1=O)SC(C)C2 (centres undefined),"10 µM [rising, partial curve]"
20,Cc1ccc2nc(N3CCC(C(=O)O)CC3)nc(-c3ccccc3)c2c1,"12.6 µM [rising, partial curve]"
21,CCOC(=O)NCCc1ccc(OC)cc1,"0.631 µM [rising, full curve, poor fit]"
22,Cc1oncc1C(=O)Nc1ccc(C(F)(F)F)cc1,"20 µM [falling, partial curve]"

row,Structure (SMILES),AC50
1,COc1ccc(-c2nnn(CC(=O)OC3CCCCC3)n2)cc1OC,"15.8 µM [rising, single point]"
2,COc1ccc(Nc2cc(C)nc3nc(C)nn23)c(OC)c1,"12.6 µM [rising, partial curve]"
3,N#Cc1nc(Cc2ccccc2)oc1NCCc1ccccc1,"25.1 µM [rising, single point]"
4,c1ccc(N2CCN(CCc3nnc4n3CCCCC4)CC2)cc1,"3.98 µM [falling, partial curve]"
5,CCCCOC(=O)Nc1nnc(CCOCC)s1,"12.6 µM [rising, partial curve]"
6,O=C(CCCCCn1c(=O)[nH]c2ccsc2c1=O)N1CCCCC1,"10 µM [rising, single point]"
7,COc1ccc(-n2nc(C(=O)NCC(=O)N3CCN(c4ccccn4)CC3)c3ccccc3c2=O)cc1,"0.0794 µM [rising, single point]"
8,CN=C(Nc1cc(C)nn1CCC#N)c1ccccc1F,"0.794 µM [falling, single point]"
9,COCCn1c(=O)c(-c2cccc(C#N)c2)nc2cnc(OCc3ccccc3)nc21,"15.8 µM [rising, partial curve]"
10,O=C(COc1ccccc1)Nc1ccccc1N1CCN(c2ccccc2)CC1,"2.51 µM [rising, full curve, poor fit]"
11,COc1cccc(-c2nc(-c3ccccn3)no2)c1OC,"12.6 µM [rising, single point]"
12,Brc1ccc(C2=Nn3c(nnc3-c3n[nH]c4c3CCC4)SC2)cc1,"7.94 µM [rising, partial curve]"
13,COc1ccccc1-c1nc(C#N)c(N2CCc3ccccc3C2)o1,"2 µM [rising, partial curve]"
14,CCN(CC)C(=O)C1CCCc2c1[nH]c1ccc(Cl)cc21 (centres undefined),"7.94 µM [falling, partial curve]"
15,Nc1nnc(-c2ccncc2)s1,"2.51 µM [falling, full curve, poor fit]"
16,COc1cc(-c2noc(CCC(=O)Nc3cccnc3)n2)cc(OC)c1OC,"7.94 µM [rising, partial curve]"
17,COCCn1c(=O)c(CCc2ccccc2)nc2cnc(Oc3ccccc3)nc21,"7.94 µM [rising, partial curve]"
18,CC(C)C1Nc2ccc(S(N)(=O)=O)cc2C2C=CCC21 (centres undefined),"12.6 µM [falling, single point]"
19,O=C(NCC1CC1)[C@H]1C[C@@H]1[C@H](NP(=O)(c1ccccc1)c1ccccc1)c1ccccc1,"15.8 µM [rising, single point]"
20,CCc1ccccc1NC(=O)Cn1nnc(-c2cccnc2)n1,"3.16 µM [rising, single point]"
21,COc1cc(C2C(C#N)=C(N)Oc3n[nH]c(-c4ccncc4)c32)cc(OC)c1OC (centres undefined),"12.6 µM [rising, single point]"
22,CCOC(=O)c1[nH]c(C)c(C(=O)N2CCc3ccccc32)c1C,"10 µM [rising, partial curve]"

# From PubChem BioAssay AID662 (National Center for Advancing Translational Sciences (NCATS), 2007)
